This note sets out measurements from paper doi:10.1101/2024.05.08.593122 (bioRxiv, 2024).

Results are given in words; binding and its absence hold for the method and conditions named. For part of these data: In cells and extracts the contact can be indirect. Some binding calls cover weakened binding; strength is not graded here. Where a sequence is shown, tags or fusion partners need not be part of it.

Assay [1] deals with N-terminally HA tagged Tgl2 (S. cerevisiae) (UniProt P54857). The assay is described as follows: native gel or EMSA. In general terms: A gel shift assay detects complexes by their altered migration in electrophoresis.
The target in assay [2] is T1, N-terminally FLAG tagged Tgl2 (S. cerevisiae, UniProt P54857 1-326).
T1 sequence (looked up): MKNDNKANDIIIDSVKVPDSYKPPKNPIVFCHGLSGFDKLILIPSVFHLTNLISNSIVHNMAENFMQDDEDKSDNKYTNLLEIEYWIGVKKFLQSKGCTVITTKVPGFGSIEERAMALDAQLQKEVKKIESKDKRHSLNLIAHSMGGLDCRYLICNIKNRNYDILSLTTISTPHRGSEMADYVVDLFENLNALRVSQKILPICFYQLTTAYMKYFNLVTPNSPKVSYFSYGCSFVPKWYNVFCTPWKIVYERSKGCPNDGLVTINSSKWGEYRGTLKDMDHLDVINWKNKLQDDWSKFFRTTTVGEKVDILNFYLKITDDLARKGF
The assay is described as follows: co-IP.

For assay [3], the target named is HA-Tgl2 C232A (S. cerevisiae) (UniProt P54857). In words: native gel or EMSA.
Assay [4] has the same target. In words: non-reducing SDS-PAGE with immunodecoration.
For assay [5], the target named is C-terminally tagged Tgl2 (S. cerevisiae) (UniProt P54857). The assay is described as follows: native gel or EMSA.
For assay [6], the target named is HA-Tgl2 D259A (S. cerevisiae) (UniProt P54857). In words: native gel or EMSA.
Assay [7] deals with HA-Tgl2 C31A (S. cerevisiae) (UniProt P54857). The assay is described as follows: native gel or EMSA.
Assay [8] shares this target. The assay is described as follows: non-reducing SDS-PAGE with immunodecoration.
Assay [9] deals with HA-Tgl2 S144A (S. cerevisiae) (UniProt P54857). The assay is described as follows: native gel or EMSA.
The target is the same in assay [10]. The assay is described as follows: non-reducing SDS-PAGE with immunodecoration.
For assay [11], the target named is HA-Tgl2 C256A (S. cerevisiae) (UniProt P54857). In words: native gel or EMSA.
Assay [12] shares this target. In words: non-reducing SDS-PAGE with immunodecoration.

B1: N-terminally HA tagged Tgl2 (natural protein, S. cerevisiae, UniProt P54857 1-326, looked up)
chain: MKNDNKANDIIIDSVKVPDSYKPPKNPIVFCHGLSGFDKLILIPSVFHLTNLISNSIVHNMAENFMQDDEDKSDNKYTNLLEIEYWIGVKKFLQSKGCTVITTKVPGFGSIEERAMALDAQLQKEVKKIESKDKRHSLNLIAHSMGGLDCRYLICNIKNRNYDILSLTTISTPHRGSEMADYVVDLFENLNALRVSQKILPICFYQLTTAYMKYFNLVTPNSPKVSYFSYGCSFVPKWYNVFCTPWKIVYERSKGCPNDGLVTINSSKWGEYRGTLKDMDHLDVINWKNKLQDDWSKFFRTTTVGEKVDILNFYLKITDDLARKGF
For the molecule B1, the binding entry in assay [1] and in [2] was “binds” throughout.

B2: HA-Tgl2 C232A (protein, UniProt P54857 1-326)
chain: MKNDNKANDIIIDSVKVPDSYKPPKNPIVFCHGLSGFDKLILIPSVFHLTNLISNSIVHNMAENFMQDDEDKSDNKYTNLLEIEYWIGVKKFLQSKGCTVITTKVPGFGSIEERAMALDAQLQKEVKKIESKDKRHSLNLIAHSMGGLDCRYLICNIKNRNYDILSLTTISTPHRGSEMADYVVDLFENLNALRVSQKILPICFYQLTTAYMKYFNLVTPNSPKVSYFSYGASFVPKWYNVFCTPWKIVYERSKGCPNDGLVTINSSKWGEYRGTLKDMDHLDVINWKNKLQDDWSKFFRTTTVGEKVDILNFYLKITDDLARKGF
For B2, the binding entry in assay [3] and in assay [4] was “binds” each time.

B3: C-terminally tagged Tgl2 (protein, UniProt P54857 1-326)
chain: MKNDNKANDIIIDSVKVPDSYKPPKNPIVFCHGLSGFDKLILIPSVFHLTNLISNSIVHNMAENFMQDDEDKSDNKYTNLLEIEYWIGVKKFLQSKGCTVITTKVPGFGSIEERAMALDAQLQKEVKKIESKDKRHSLNLIAHSMGGLDCRYLICNIKNRNYDILSLTTISTPHRGSEMADYVVDLFENLNALRVSQKILPICFYQLTTAYMKYFNLVTPNSPKVSYFSYGCSFVPKWYNVFCTPWKIVYERSKGCPNDGLVTINSSKWGEYRGTLKDMDHLDVINWKNKLQDDWSKFFRTTTVGEKVDILNFYLKITDDLARKGF
As for B3, the binding entry in [5] is reported as “binds”.

B4: HA-Tgl2 D259A (protein, UniProt P54857 1-326)
chain: MKNDNKANDIIIDSVKVPDSYKPPKNPIVFCHGLSGFDKLILIPSVFHLTNLISNSIVHNMAENFMQDDEDKSDNKYTNLLEIEYWIGVKKFLQSKGCTVITTKVPGFGSIEERAMALDAQLQKEVKKIESKDKRHSLNLIAHSMGGLDCRYLICNIKNRNYDILSLTTISTPHRGSEMADYVVDLFENLNALRVSQKILPICFYQLTTAYMKYFNLVTPNSPKVSYFSYGCSFVPKWYNVFCTPWKIVYERSKGCPNAGLVTINSSKWGEYRGTLKDMDHLDVINWKNKLQDDWSKFFRTTTVGEKVDILNFYLKITDDLARKGF
On to B4, for which, in assay [6], the binding entry was “binds”.

B5: HA-Tgl2 C31A (protein, UniProt P54857 1-326)
chain: MKNDNKANDIIIDSVKVPDSYKPPKNPIVFAHGLSGFDKLILIPSVFHLTNLISNSIVHNMAENFMQDDEDKSDNKYTNLLEIEYWIGVKKFLQSKGCTVITTKVPGFGSIEERAMALDAQLQKEVKKIESKDKRHSLNLIAHSMGGLDCRYLICNIKNRNYDILSLTTISTPHRGSEMADYVVDLFENLNALRVSQKILPICFYQLTTAYMKYFNLVTPNSPKVSYFSYGCSFVPKWYNVFCTPWKIVYERSKGCPNDGLVTINSSKWGEYRGTLKDMDHLDVINWKNKLQDDWSKFFRTTTVGEKVDILNFYLKITDDLARKGF
B5: the binding entry in [7] and in assay [8] was “binds” in each case.

B6: HA-Tgl2 S144A (protein, UniProt P54857 1-326)
chain: MKNDNKANDIIIDSVKVPDSYKPPKNPIVFCHGLSGFDKLILIPSVFHLTNLISNSIVHNMAENFMQDDEDKSDNKYTNLLEIEYWIGVKKFLQSKGCTVITTKVPGFGSIEERAMALDAQLQKEVKKIESKDKRHSLNLIAHAMGGLDCRYLICNIKNRNYDILSLTTISTPHRGSEMADYVVDLFENLNALRVSQKILPICFYQLTTAYMKYFNLVTPNSPKVSYFSYGCSFVPKWYNVFCTPWKIVYERSKGCPNDGLVTINSSKWGEYRGTLKDMDHLDVINWKNKLQDDWSKFFRTTTVGEKVDILNFYLKITDDLARKGF
Consider B6, for which the binding entry in assay [9] and in [10] was “binds” throughout.

B7: HA-Tgl2 C256A (protein, UniProt P54857 1-326)
chain: MKNDNKANDIIIDSVKVPDSYKPPKNPIVFCHGLSGFDKLILIPSVFHLTNLISNSIVHNMAENFMQDDEDKSDNKYTNLLEIEYWIGVKKFLQSKGCTVITTKVPGFGSIEERAMALDAQLQKEVKKIESKDKRHSLNLIAHSMGGLDCRYLICNIKNRNYDILSLTTISTPHRGSEMADYVVDLFENLNALRVSQKILPICFYQLTTAYMKYFNLVTPNSPKVSYFSYGCSFVPKWYNVFCTPWKIVYERSKGAPNDGLVTINSSKWGEYRGTLKDMDHLDVINWKNKLQDDWSKFFRTTTVGEKVDILNFYLKITDDLARKGF
B7: the binding result in [11] and in [12] was “binds” in each case.
